Assay results from the supplement of paper PMC12889115.
The other results are listed elsewhere or left out. These are raw signals, not scaled to a control.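 In the initial screen, polymyxin B was used at a concentration that permeabilizes Salmonella's outer membrane but not its inner membrane. Maximum growth was set by DMSO wells with or without polymyxin B. Since plates varied, data were ranked per plate, and compounds giving the lowest OD600 advanced as hits.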

Tested on: Salmonella enterica serovar Typhimurium SL1344
Assay: bacterial growth OD600 after 18 h with compound and polymyxin B; higher = more bacterial growth (less inhibition)
Settings: 50 µM, Mueller-Hinton broth

## CN(Cc1cnccn1)C(=O)CC1C(=O)NCCN1CCCc1ccccc1 (stereo not given)
Polymyxin B 1 µg/mL
  bacterial growth OD600: 0.944

## COc1ccc(CN2CCNC(=O)C2CC(=O)N2CCN(c3ccccc3)CC2)c(C)c1C (stereo not given)
Polymyxin B 1 µg/mL
  bacterial growth OD600: 0.805

## COc1c(C)cc(C(=O)C2CCCN(Cc3c(C)nc4sccn34)C2)cc1C (stereo not given)
Polymyxin B 1 µg/mL
  bacterial growth OD600: 0.692

## Cc1nc[nH]c1CN1CCCC(CCc2c(F)cccc2F)C1 (stereo not given)
Polymyxin B 0.75 µg/mL
  bacterial growth OD600: 0.867

## CCN(Cc1nccn1C)C(=O)c1ccc(N(C)CC2CCCCN2C)nc1 (stereo not given)
Polymyxin B 0.75 µg/mL
  bacterial growth OD600: 0.849

## COc1cccc(-c2cn3c(C(=O)N4CCN(C)C(C)C4)csc3n2)c1 (stereo not given)
Polymyxin B 0.75 µg/mL
  bacterial growth OD600: 0.785

## CCOC(=O)CN(C)C1CCN(c2ccc(CC(=O)NCCc3cccc(F)c3)cc2)CC1
Polymyxin B 0.75 µg/mL
  bacterial growth OD600: 0.867

## O=C(CCC(F)(F)F)N1CCC(CCC(=O)N2CCC(Cc3ccccc3)CC2)CC1
Polymyxin B 1 µg/mL
  bacterial growth OD600: 0.824

## O=C(c1ccc(N2CCCC(O)C2)nc1)N1CCC(Cn2cccn2)CC1 (stereo not given)
Polymyxin B 0.75 µg/mL
  bacterial growth OD600: 0.798

## CN(CCc1ccccc1)C1CCN(c2ccc(C(=O)NCCN3CCOCC3)cc2)CC1
Polymyxin B 0.75 µg/mL
  bacterial growth OD600: 0.875

## O=C(CCCn1cncn1)N1CCOC(Cc2ccccc2Cl)C1 (stereo not given)
Polymyxin B 0.75 µg/mL
  bacterial growth OD600: 0.985

## CN(CCOc1ccccc1)C(=O)c1cn(Cc2ccccc2F)nn1
Polymyxin B 1 µg/mL
  bacterial growth OD600: 0.827

## CCOC(=O)C1(CCc2ccccc2)CCCN(C(=O)c2n[nH]c(=O)c3ccccc23)C1 (stereo not given)
Polymyxin B 1 µg/mL
  bacterial growth OD600: 0.757

## COc1ccc(-n2ncc(C(C)NCc3ccc(F)cc3Cl)c2C)cc1 (stereo not given)
Polymyxin B 0.75 µg/mL
  bacterial growth OD600: 0.772

## Cc1cc(C(=O)N2CCC(N3CCC(C(=O)NCCc4ccccc4)CC3)CC2)n(C)n1
Polymyxin B 1 µg/mL
  bacterial growth OD600: 0.735

## CCc1ccc(CN2CCCC2C(=O)Nc2ccccc2Oc2cccnc2)o1 (stereo not given)
Polymyxin B 0.75 µg/mL
  bacterial growth OD600: 0.433

## Cn1ccnc1CNC(=O)CC(c1cccc(O)c1)c1cccc(Cl)c1 (stereo not given)
Polymyxin B 1 µg/mL
  bacterial growth OD600: 0.787

## O=C(NCc1cccc(OC(F)(F)F)c1)C1CCC(=O)N(Cc2cccc(F)c2)C1 (stereo not given)
Polymyxin B 1 µg/mL
  bacterial growth OD600: 0.793

## Cn1c(C2CCCO2)nc2cc(NC(=O)CC3CCCC3)cc(C(=O)NCCCn3ccnc3)c21 (stereo not given)
Polymyxin B 0.75 µg/mL
  bacterial growth OD600: 0.991

## COc1ccc(C(=O)Nc2ccnn2C2CCN(C(=O)C3=CCCC3)CC2)cc1
Polymyxin B 1 µg/mL
  bacterial growth OD600: 0.936

## COc1ccccc1CCC(=O)Nc1cnn(CC(=O)NC(C)c2nc(-c3ccccc3)no2)c1 (stereo not given)
Polymyxin B 0.75 µg/mL
  bacterial growth OD600: 0.012

## Cc1ccccc1Oc1ncccc1CNC(=O)CCN1CCOCC1
Polymyxin B 1 µg/mL
  bacterial growth OD600: 0.934

## O[C@@H]1CN(Cc2nccs2)CC[C@H]1N1CCN(CCc2ccccc2)CC1
Polymyxin B 1 µg/mL
  bacterial growth OD600: 1.26

## COc1ccc(Cl)cc1NC(=O)CCC1CCCN(C(=O)C2=CCCC2)C1 (stereo not given)
Polymyxin B 0.75 µg/mL
  bacterial growth OD600: 0.774

## CCC(C)C(=O)N1CCc2ccc(NC(=O)CCc3ccc(C)cc3)cc2C1 (stereo not given)
Polymyxin B 0.75 µg/mL
  bacterial growth OD600: 0.009

## O=C(c1cc(Cl)ccc1OC1CCN(C2CCCC2)CC1)N1CCCCO1
Polymyxin B 1 µg/mL
  bacterial growth OD600: 0.957

## CC(CNc1nncc(-c2cccc3ccccc23)n1)Oc1cccnc1 (stereo not given)
Polymyxin B 0.75 µg/mL
  bacterial growth OD600: 0.711

## COCC1CCCCN1Cc1nc(-c2ccc(OC)cc2)no1 (stereo not given)
Polymyxin B 1 µg/mL
  bacterial growth OD600: 0.836

## CCN1CCN(C(=O)c2ccc(N3CCC(NC(C)C45CC6CC(CC(O)(C6)C4)C5)CC3)cc2)CC1 (stereo not given)
Polymyxin B 0.75 µg/mL
  bacterial growth OD600: 0.883

## CCOC(=O)C1(Cc2ccc(Cl)cc2)CCN(C(=O)c2ccc3nccnc3c2)CC1
Polymyxin B 1 µg/mL
  bacterial growth OD600: 0.003
